Measurements as given in publication PMC10774353.
These are yes or no findings as the source states them, for the method shown. Binding can be weak; no strength is given.

Target: T1, Rsph3b (mouse) (UniProt Q9DA80)
T1 sequence: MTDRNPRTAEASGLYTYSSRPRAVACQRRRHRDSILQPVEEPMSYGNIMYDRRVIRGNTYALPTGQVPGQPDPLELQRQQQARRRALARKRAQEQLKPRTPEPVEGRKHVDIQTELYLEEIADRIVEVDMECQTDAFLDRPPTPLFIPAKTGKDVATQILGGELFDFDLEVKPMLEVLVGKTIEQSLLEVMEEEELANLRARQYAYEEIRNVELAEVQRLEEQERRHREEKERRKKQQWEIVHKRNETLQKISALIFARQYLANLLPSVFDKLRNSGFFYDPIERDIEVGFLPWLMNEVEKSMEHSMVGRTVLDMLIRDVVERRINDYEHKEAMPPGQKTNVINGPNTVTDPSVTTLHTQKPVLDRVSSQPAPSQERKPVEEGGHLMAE
Assay: cryo-EM structure; RS head-neck complex co-expressed in HEK293F, purified by Strep-Tactin then anti-FLAG beads, cross-linked by GraFix (0-0.1% glutaraldehyde, 10-40% glycerol, 4 °C); monomer map 3.28 Å, dimer map 3.57 Å; both purified

For HA-tagged Rsph2 (from UniProt F6QU18), the binding was “binds”.
